Laboratory results: PubChem BioAssay AID504786 (Drosophila RNAi Screening Center, 2011)

- Purpose: 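Positive regulators of HIF-driven reporter output in Drosophila cells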 (primary screen)
- System: Drosophila S2 cells with a stable HIF luciferase reporter
- Knock-down reagent: long dsRNA against Drosophila genes, about 0.2 µg dsRNA per well of a 384-well plate
- Time to read-out: three days of knock-down, then 20 h of DFO before reading
- Conditions: desferrioxamine (DFO) at 100 µM, an iron chelator that mimics hypoxia, for 20 h
- Read-out: 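HIF reporter luminescence in cells given 100 µM DFO for 20 h, using the mouse ldh-a hypoxia-response element, scored as per-plate z-scores; higher means greater loss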
- Scale: z-score: higher = stronger loss of HIF reporter signal
In all, the deposit lists about 21,000 reagents; shown is an unselected part of those that have a named target and a result. 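Primary screen; positive scores mean lost reporter signal, so the sign may be inverted from the usual convention.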 The numbers tell different reagents against one gene apart. Reagent sequences are not shown.

{"gene": "CG12057 (GeneID 31854)", "dsRNA no.": 1, "z-score, replicate 1": -0.1, "z-score, replicate 2": 0.2}
{"gene": "eas (GeneID 32585)", "dsRNA no.": 1, "z-score, replicate 1": -0.4, "z-score, replicate 2": -0.3}
{"gene": "Cht11 (GeneID 31630)", "dsRNA no.": 1, "z-score, replicate 1": -0.3, "z-score, replicate 2": -0.9}
{"gene": "Pus10 (GeneID 33178)", "dsRNA no.": 1, "z-score, replicate 1": -0.1, "z-score, replicate 2": 0.3}
{"gene": "Ubc6 (GeneID 40610)", "dsRNA no.": 1, "z-score, replicate 1": 0.1, "z-score, replicate 2": 0.4}
{"gene": "CG7304 (GeneID 39713)", "dsRNA no.": 1, "z-score, replicate 1": -0.1, "z-score, replicate 2": -0.5}
{"gene": "CG1537 (GeneID 32037)", "dsRNA no.": 1, "z-score, replicate 1": -0.4, "z-score, replicate 2": -1.1}
{"gene": "Gr59b (GeneID 117484)", "dsRNA no.": 1, "z-score, replicate 1": -0.2, "z-score, replicate 2": 0}
{"gene": "Mrp5 (GeneID 42362)", "dsRNA no.": 1, "z-score, replicate 1": -0.7, "z-score, replicate 2": 0}
{"gene": "Mrp5 (GeneID 42362)", "dsRNA no.": 2, "z-score, replicate 1": -0.8, "z-score, replicate 2": -0.2}

Next part; the last 2 above are carried over.
{"gene": "Mrp5 (GeneID 42362)", "dsRNA no.": 1, "z-score, replicate 1": -0.7, "z-score, replicate 2": 0}
{"gene": "Mrp5 (GeneID 42362)", "dsRNA no.": 2, "z-score, replicate 1": -0.8, "z-score, replicate 2": -0.2}
{"gene": "Alg7 (GeneID 34711)", "dsRNA no.": 1, "z-score, replicate 1": -0.3, "z-score, replicate 2": -0.1}
{"gene": "Alg7 (GeneID 34711)", "dsRNA no.": 2, "z-score, replicate 1": -0.2, "z-score, replicate 2": 0.4}
{"gene": "cnir (GeneID 33520)", "dsRNA no.": 1, "z-score, replicate 1": -0.2, "z-score, replicate 2": -0.4}
{"gene": "mRpS10 (GeneID 41838)", "dsRNA no.": 1, "z-score, replicate 1": 0.5, "z-score, replicate 2": 0.6}
{"gene": "ine (GeneID 33659)", "dsRNA no.": 1, "z-score, replicate 1": -0.2, "z-score, replicate 2": -0.4}
{"gene": "CG15894 (GeneID 31574)", "dsRNA no.": 1, "z-score, replicate 1": -0.2, "z-score, replicate 2": 0.1}
{"gene": "CG15894 (GeneID 31574)", "dsRNA no.": 2, "z-score, replicate 1": 1.7, "z-score, replicate 2": 2.2}
{"gene": "Or67d (GeneID 39191)", "dsRNA no.": 1, "z-score, replicate 1": 0.5, "z-score, replicate 2": 0.4}
{"gene": "CG11857 (GeneID 43042)", "dsRNA no.": 1, "z-score, replicate 1": -0.9, "z-score, replicate 2": -0.5}
{"gene": "Jon25Bi (GeneID 33708)", "dsRNA no.": 1, "z-score, replicate 1": -0.2, "z-score, replicate 2": -0.1}
{"gene": "beat-IIa (GeneID 42086)", "dsRNA no.": 1, "z-score, replicate 1": -0.3, "z-score, replicate 2": -0.7}
{"gene": "beat-IIa (GeneID 42086)", "dsRNA no.": 2, "z-score, replicate 1": 0, "z-score, replicate 2": 0.1}
{"gene": "sff (GeneID 39732)", "dsRNA no.": 1, "z-score, replicate 1": -0.2, "z-score, replicate 2": -0.4}
{"gene": "spir (GeneID 45931)", "dsRNA no.": 1, "z-score, replicate 1": -0.3, "z-score, replicate 2": -0.3}
{"gene": "Bub3 (GeneID 43490)", "dsRNA no.": 1, "z-score, replicate 1": -0.2, "z-score, replicate 2": 0.2}
{"gene": "ppk14 (GeneID 33887)", "dsRNA no.": 1, "z-score, replicate 1": 0, "z-score, replicate 2": -0.7}
{"gene": "CG2681 (GeneID 31258)", "dsRNA no.": 1, "z-score, replicate 1": -0.2, "z-score, replicate 2": -0.7}
